Test results reported in the supplement of paper PMC10849652.
Some of the results follow.

By UniProt entry, the sequences of proteins in these tests, tags left out. Where a name states a change or a piece, a line headed by the entry shows the natural chain unless it says otherwise.
UniProt Q13370: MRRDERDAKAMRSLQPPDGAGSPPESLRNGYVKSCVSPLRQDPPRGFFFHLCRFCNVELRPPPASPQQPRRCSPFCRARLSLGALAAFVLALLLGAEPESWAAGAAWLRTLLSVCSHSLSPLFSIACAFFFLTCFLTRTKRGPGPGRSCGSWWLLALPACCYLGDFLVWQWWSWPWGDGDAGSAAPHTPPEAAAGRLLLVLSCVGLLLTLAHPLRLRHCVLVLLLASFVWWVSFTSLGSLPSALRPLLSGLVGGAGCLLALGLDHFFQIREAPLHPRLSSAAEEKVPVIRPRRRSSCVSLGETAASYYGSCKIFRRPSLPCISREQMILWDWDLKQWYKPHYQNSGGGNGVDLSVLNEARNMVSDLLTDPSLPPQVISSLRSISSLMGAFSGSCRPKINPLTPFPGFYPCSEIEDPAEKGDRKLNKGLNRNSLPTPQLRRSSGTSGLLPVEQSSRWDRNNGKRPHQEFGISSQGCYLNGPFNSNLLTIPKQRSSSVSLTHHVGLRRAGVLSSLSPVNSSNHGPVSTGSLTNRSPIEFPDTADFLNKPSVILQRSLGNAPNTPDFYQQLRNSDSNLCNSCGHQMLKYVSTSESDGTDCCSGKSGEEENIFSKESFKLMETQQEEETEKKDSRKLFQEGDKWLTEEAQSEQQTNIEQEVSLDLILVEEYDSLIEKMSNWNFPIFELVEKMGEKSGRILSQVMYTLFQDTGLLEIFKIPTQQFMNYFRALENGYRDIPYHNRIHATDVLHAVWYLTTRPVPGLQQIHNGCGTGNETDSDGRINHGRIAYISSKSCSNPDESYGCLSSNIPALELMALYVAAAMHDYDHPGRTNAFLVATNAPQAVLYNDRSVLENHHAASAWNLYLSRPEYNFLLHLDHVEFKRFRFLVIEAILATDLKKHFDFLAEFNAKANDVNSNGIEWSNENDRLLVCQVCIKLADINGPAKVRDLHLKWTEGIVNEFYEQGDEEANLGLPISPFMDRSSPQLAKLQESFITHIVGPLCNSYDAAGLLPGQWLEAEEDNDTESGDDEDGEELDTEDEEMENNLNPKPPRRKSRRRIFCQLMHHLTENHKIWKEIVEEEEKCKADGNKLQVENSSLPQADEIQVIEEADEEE
UniProt O43924: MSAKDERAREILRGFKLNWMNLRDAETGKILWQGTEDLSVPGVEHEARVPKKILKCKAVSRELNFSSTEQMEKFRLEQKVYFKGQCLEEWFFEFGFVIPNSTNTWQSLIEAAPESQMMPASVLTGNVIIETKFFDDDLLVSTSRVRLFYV
UniProt Q9UBM1: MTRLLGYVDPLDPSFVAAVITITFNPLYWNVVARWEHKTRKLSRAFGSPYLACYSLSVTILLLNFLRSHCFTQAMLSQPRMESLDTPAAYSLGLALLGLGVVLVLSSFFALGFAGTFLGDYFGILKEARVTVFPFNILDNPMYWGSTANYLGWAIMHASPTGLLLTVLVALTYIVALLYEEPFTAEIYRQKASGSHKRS
UniProt Q9NWS1: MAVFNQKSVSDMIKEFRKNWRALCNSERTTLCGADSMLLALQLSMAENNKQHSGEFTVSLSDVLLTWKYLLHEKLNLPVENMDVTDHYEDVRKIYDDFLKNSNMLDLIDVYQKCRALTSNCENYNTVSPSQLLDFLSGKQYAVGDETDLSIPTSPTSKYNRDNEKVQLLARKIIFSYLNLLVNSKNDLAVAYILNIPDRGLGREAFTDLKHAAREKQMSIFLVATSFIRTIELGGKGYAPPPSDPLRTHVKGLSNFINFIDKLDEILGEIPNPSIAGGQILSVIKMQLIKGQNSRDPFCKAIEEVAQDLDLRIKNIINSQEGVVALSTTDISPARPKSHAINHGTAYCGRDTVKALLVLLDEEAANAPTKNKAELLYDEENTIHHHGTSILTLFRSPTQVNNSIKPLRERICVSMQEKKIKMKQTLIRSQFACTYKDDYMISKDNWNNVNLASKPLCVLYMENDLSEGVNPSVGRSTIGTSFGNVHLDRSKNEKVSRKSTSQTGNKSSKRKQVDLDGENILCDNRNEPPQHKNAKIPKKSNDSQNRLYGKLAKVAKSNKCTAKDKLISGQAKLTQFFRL
UniProt O75340: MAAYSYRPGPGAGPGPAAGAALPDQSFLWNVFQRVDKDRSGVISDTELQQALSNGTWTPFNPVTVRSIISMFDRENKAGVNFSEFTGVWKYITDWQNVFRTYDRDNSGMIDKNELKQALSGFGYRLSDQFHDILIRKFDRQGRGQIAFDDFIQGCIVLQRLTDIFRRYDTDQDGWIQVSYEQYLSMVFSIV
UniProt P56589: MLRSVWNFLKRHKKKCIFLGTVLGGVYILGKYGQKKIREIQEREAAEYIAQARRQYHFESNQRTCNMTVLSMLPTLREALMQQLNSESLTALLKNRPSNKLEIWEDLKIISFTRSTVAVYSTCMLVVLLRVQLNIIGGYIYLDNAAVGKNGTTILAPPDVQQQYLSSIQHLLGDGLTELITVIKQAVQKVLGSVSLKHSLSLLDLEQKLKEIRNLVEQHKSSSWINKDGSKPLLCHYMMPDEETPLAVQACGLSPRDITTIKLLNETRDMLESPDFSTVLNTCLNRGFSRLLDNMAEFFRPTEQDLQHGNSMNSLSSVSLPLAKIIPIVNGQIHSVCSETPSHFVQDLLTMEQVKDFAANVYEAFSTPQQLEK
UniProt Q9BYE7: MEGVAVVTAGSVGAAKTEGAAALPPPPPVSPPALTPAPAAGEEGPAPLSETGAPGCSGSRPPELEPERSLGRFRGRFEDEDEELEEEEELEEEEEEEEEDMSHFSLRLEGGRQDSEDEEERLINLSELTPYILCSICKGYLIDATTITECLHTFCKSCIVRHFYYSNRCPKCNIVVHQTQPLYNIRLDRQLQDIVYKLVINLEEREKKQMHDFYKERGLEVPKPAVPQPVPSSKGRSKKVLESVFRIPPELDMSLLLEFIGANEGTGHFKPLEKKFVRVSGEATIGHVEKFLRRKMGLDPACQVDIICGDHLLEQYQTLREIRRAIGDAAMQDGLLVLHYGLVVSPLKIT

Tests used:
Assay in all cases: log2 fold change, soluble protein after heating vs DMSO (PISA); higher = thermal stabilisation; K562 lysate, 10 uM; active = over 0.2 and 3.5 SD of the protein, either way, in both replicates (recomputed)
[1] = compound: C1=CC2=NC=CN=C2C=C1/C=C/3\C(=O)NC(=O)S3
In short: (§1)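 Soluble protein was defined as the supernatant remaining after 21,000xg for 90 min, following pooling of heated aliquots and adjustment to 0.5% NP-40 at 4°C. Before that, crude K562 extract at 1 mg/mL protein in PBS pH 7.4 with 1 mM MgCl2 was treated with 10 μM compound for 30 min and heated for 3 min across 48°C-58°C. Quantification used TMTpro 16plex LC-MS/MS with channel sums equalised, and values are log-two fold changes in thermal stability relative to solvent controls from duplicates.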

[2] = compound: C1=CC=C(C=C1)C2=NC(=C(N2)C3=CC=NC=C3)C4=CC(=C(C=C4)Cl)O
In short: as §1

[3] = compound: C1CCN(C1)C(=O)NC2=CC=CC(=C2)NC3=NC=C(C(=N3)NCCC4=CN=CN4)Br
In short: as §1

[4] = compound: C1CN(CCC1(CC2=CC=C(C=C2)Cl)N)C3=NC=NC4=C3C=CN4
In short: as §1

IRAK-1-4 Inhibitor I = compound: C1COCCN1CCN2C3=CC=CC=C3N=C2NC(=O)C4=CC(=CC=C4)[N+](=O)[O-] [IRAK-1-4 Inhibitor I]
In short: as §1

erlotinib = compound: C#Cc1cccc(Nc2ncnc3cc(OCCOC)c(OCCOC)cc23)c1 [erlotinib]
In short: as §1

[5] = compound: C1=CC(=CC=C1C2=NC3=C(N2)C=C(C=C3)C(=O)N)OC4=CC=C(C=C4)Cl
In short: as §1

[6] = compound: C/C(=N\NC(=O)C1=CC(=CC=C1)S(=O)(=O)N2CCOCC2)/C3=C(C=CC(=C3)Cl)O
In short: as §1

[7] = compound: C1=CC2=C(C=CC(=C2)/C=C\3/C(=O)NC(=NCC4=CC=CS4)S3)N=C1
In short: as §1

[8] = compound: C1=CC=C2C(=C1)C3=NNC4=CC=CC(=C43)C2=O
In short: as §1

Measured: log2 fold change

PFN1 (UniProt I3L3D5)
inactive: [1] 0.054 | [2] 0.045 | [3] 0.009 | [4] 0.03 | IRAK-1-4 Inhibitor I 0.005

PDE3B (UniProt Q13370)
inactive: [2] -0.037 | IRAK-1-4 Inhibitor I 0.005

PDE6D (UniProt O43924)
inactive: erlotinib -0.162 | [5] -0.013 | [1] 0.021 | [2] -0.046 | [3] 0.185 | [4] 0 | IRAK-1-4 Inhibitor I 0.064

PEMT isoform 2 (UniProt Q9UBM1)
inactive: [6] 0.065 | [7] 0.249 | [8] -0.201

2 successive entries already listed, for reference:
PDE6D (UniProt O43924)
inactive: erlotinib -0.162 | [5] -0.013 | [1] 0.021 | [2] -0.046 | [3] 0.185 | [4] 0 | IRAK-1-4 Inhibitor I 0.064

PEMT isoform 2 (UniProt Q9UBM1)
inactive: [6] 0.065 | [7] 0.249 | [8] -0.201

More entries.

PARPBP (UniProt Q9NWS1)
inactive: erlotinib 0.048 | [6] 0.055 | [5] 0.065 | [7] -0.445 | [1] -0.01 | [8] 0.006 | [3] 0.064 | [4] 0.08

PDCD6 isoform 2 (UniProt O75340)
inactive: [2] 0.006 | IRAK-1-4 Inhibitor I 0.015

PEX3 (UniProt P56589)
inactive: [3] -0.056 | [4] 0.001

PGAP2 isoform 2 (UniProt Q9UHJ9)
inactive: [3] 0.118 | [4] -0.066

PCGF6 (UniProt Q9BYE7)
inactive: erlotinib 0.039 | [6] 0.033 | [5] 0.016 | [7] -0.032 | [2] -0.006 | [8] -0.171 | IRAK-1-4 Inhibitor I 0.017
